In this test the target is purified wild type Tat 1–86 (HIV-1) (UniProt P04608). Put plainly: pull-down; biotin-TAR RNA (1.5 ug) held on streptavidin beads; purified Tat incubated with CEM nuclear extract (2 mg/reaction) in TNE50 buffer with protease inhibitors and RNAsin overnight at 4°C; Western blot for cyclin T; only the target purified. (In western blotting, separated proteins are transferred to a membrane and probed.)

Protein sequences, listed by entry. Tags and fused reporters are not part of them. Lines headed by an entry give the natural chain unless they say otherwise; changes in a name come on top.
UniProt P04608: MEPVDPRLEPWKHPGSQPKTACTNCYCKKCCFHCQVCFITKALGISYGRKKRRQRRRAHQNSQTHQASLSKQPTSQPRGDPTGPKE
UniProt P50750: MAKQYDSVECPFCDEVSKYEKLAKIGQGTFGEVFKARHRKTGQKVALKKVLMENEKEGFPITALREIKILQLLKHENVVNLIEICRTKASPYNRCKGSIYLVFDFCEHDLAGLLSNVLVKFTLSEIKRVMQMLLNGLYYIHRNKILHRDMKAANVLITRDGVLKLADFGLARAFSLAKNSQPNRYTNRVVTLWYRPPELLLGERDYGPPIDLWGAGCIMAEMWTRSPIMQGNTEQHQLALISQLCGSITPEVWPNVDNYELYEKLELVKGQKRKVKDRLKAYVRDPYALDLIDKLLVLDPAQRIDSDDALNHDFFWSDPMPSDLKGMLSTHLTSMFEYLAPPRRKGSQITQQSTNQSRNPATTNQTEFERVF

No constants are given. Whether binding was seen depends on the method and setting. In cells and extracts the contact can be indirect. Some entries that bind do so weakly or less than the wild type.

One substance from PMC2412914 can be followed below.

“endogenous Cdk9/cyclin T complex (from UniProt P50750 1-372; O60563 1-726)”: the binding result was “binds”.
